± gives the standard deviation. Only a part is listed here, and it is no random draw. Many of these values have a large error. Some of the results follow.
Columns and labels:
[1] = test system: MILI (PIWIL2) piRISC loaded with L1MC piRNA (26 nt); assay: pre-steady-state target cleavage rate (min^-1); higher = faster piRNA-guided slicing of the target; details: guide: L1MC piRNA 5'p-UAACUAAAUACUAUGCAAGCUGUAGG
Outline: (§1)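 A transcribed, DNA-blocked target RNA library (0.1 nM) and 1 nM active affinity-purified piRISC bearing one synthetic guide were incubated in HEPES–potassium acetate buffer at 33 °C for 0–8 or 0–960 min, either with or without 500 nM GTSF1 partner protein. Uncleaved targets were sequenced, normalised to depth and to weakly complementary targets, and pooled over three trials, with k3 capped at 0.0001 min^-1. The pre-steady-state cleavage rate was derived with a burst-and-steady-state fit.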

[2] = test system: MIWI (PIWIL1) piRISC loaded with L1MC piRNA (30 nt); assay: as above; details: guide: L1MC piRNA 5'p-UAACUAAAUACUAUGCAAGCUGUAGGUCCU
Outline: as §1

[3] = test system: EfPiwi piRISC loaded with L1MC piRNA (26 nt); assay: pre-steady-state target cleavage rate (min^-1); guide: L1MC piRNA 5'p-UAACUAAAUACUAUGCAAGCUGUAGG; MIWI and MILI are mouse PIWI proteins and EfPiwi is from a freshwater sponge; tags in brackets are library labels; higher = faster piRNA-guided slicing of the target
Outline: as §1

[4] = auxiliary factor: none (no GTSF1)
[5] = auxiliary factor: 500 nM Ephydatia muelleri Gtsf1
[6] = auxiliary factor: none (no Gtsf1)
[7] = auxiliary factor: 500 nM mouse GTSF1

Sequence | pre-steady-state target cleavage rate [1, 4] | pre-steady-state target cleavage rate [2, 4] | pre-steady-state target cleavage rate [3, 5] | pre-steady-state target cleavage rate [3, 6] | pre-steady-state target cleavage rate [1, 7] | pre-steady-state target cleavage rate [2, 7]
UCCUGGAUGUCGAACGAUAUUAUUUAGUUA | 0.000125 ± 0.024 | 0.000253 ± 0.015 | 0.000154 ± 0.017 |  |  | 
UCCUGCUACAGCUACCAUAGUAUUUUCAAA | 0.000858 ± 0.0055 | 0.000561 ± 0.013 | 0.000459 ± 0.0095 |  |  | 
UCCUGGUACAGCUUCCAUACUAUUUAGUUA | 0.00102 ± 0.0086 | 0.000898 ± 0.0096 | 0.000618 ± 0.0085 |  |  | 
UCCUGCUACAGCUAGCAUAGUAUUUACAAA | 0.00112 ± 0.0056 | 0.00121 ± 0.0065 | 0.00107 ± 0.004 |  |  | 
UCCUGGAUGUCCUUGCAUAGUAUAAUCAAA [g8:g19:cont:t1A] | 0.000683 ± 0.0068 | 0.00042 ± 0.012 |  | 0.000475 ± 0.013 |  | 
UCCUGGAUGUCGUUGCAUACUAUUUAGUAA | 0.000832 ± 0.007 | 0.000583 ± 0.011 | 0.000421 ± 0.0061 |  |  | 
UCCUGGUACAGCUUGCAUACUAUUUUCAAA | 0.00138 ± 0.0065 | 0.000819 ± 0.0054 | 0.000839 ± 0.0041 |  |  | 
UCCUGGAUGUCCUUGCAUAGUAUUUACAAA | 0.000831 ± 0.0058 | 0.00154 ± 0.0051 | 0.00325 ± 0.0045 |  |  | 
UCCUGCUACAGCAUGCAUAGUAUUUUCAAA | 0.00127 ± 0.0065 | 0.000881 ± 0.0093 | 0.00206 ± 0.0025 |  |  | 
UCCUCCUACAGCUUCCAUAGUAUUUAGAUA | 0.000242 ± 0.017 | 0.000983 ± 0.0074 | 0.00393 ± 0.0021 |  |  | 
UCCUGGAUGUCCUUGCAUAGUAAAAAGUAA | 0.00142 ± 0.0043 | 0.000938 ± 0.007 | 0.00114 ± 0.0071 |  |  | 
UCCUGGAUGUCGUUGCAUAGUUUAUAGUUA |  | 0.00064 ± 0.011 | 0.000676 ± 0.0095 |  | 0.0029 ± 0.0043 | 
UCCUCCUACAGCUUGCAUUCAAUUUAGAAA | 0.00015 ± 0.021 | 0.000334 ± 0.0096 | 0.00153 ± 0.0041 |  |  | 
UCCUCGAUCAGCUUGCAUAGUAUUUAGUUA |  |  | 0.121 ± 0.023 |  | 0.316 ± 0.017 | 1.58 ± 0.056
UCCUGGAACACCUUCCAUAGUAUUUAGUUA | 0.00141 ± 0.0051 | 0.000765 ± 0.0083 | 0.00291 ± 0.0032 |  |  | 
UCCUGGUACAGCUUGCAUUGUAUUUUCAAA | 0.00121 ± 0.0089 | 0.00102 ± 0.0061 | 0.000757 ± 0.0048 |  |  | 
UCCUCCUACACGUUGCAUAGUAUUUACAAA | 0.00122 ± 0.0045 | 0.00124 ± 0.0037 | 0.00297 ± 0.0045 |  |  | 
UCCUGGUACUCGUUGCAUAGUAUUUAGUUA | 0.00247 ± 0.0043 | 0.00152 ± 0.0048 | 0.000601 ± 0.0068 |  |  | 
UCCUGGAUCAGCAACCAUAGUAUUUAGUUA | 0.00181 ± 0.0033 | 0.00128 ± 0.0052 | 0.00251 ± 0.0037 |  |  | 

Sequence | pre-steady-state target cleavage rate [1, 4] | pre-steady-state target cleavage rate [2, 4] | pre-steady-state target cleavage rate [3, 5] | pre-steady-state target cleavage rate [3, 6] | pre-steady-state target cleavage rate [1, 7] | pre-steady-state target cleavage rate [2, 7]
UCCUGGAUGUCGAACCAUAGUAUUUAUGUUA | 0.000145 ± 0.037 | 0.000163 ± 0.036 | 0.000204 ± 0.029 |  |  | 
UCCUGGAUGUCGAACCAUUGUAUUUAGAUA | 0.000206 ± 0.016 | 0.000405 ± 0.011 | 0.000214 ± 0.014 |  |  | 
UCCUCCUACAGCUUCCAUAGUUUUUAGUUA | 0.000821 ± 0.0059 | 0.00169 ± 0.0025 | 0.00144 ± 0.002 |  |  | 
UCCUGGAUGUCGAUGCAUAGUAUUUACAUA | 0.000816 ± 0.0077 | 0.000467 ± 0.013 | 0.00178 ± 0.0045 |  |  | 
UCCUGGUACAGCAACCAUAGUAUUUAGAAA | 0.00109 ± 0.0064 | 0.00105 ± 0.0091 | 0.000654 ± 0.0072 |  |  | 
UCCUGCUACAGCUUGCAUAGUAUUUUCAAA | 0.0014 ± 0.0048 | 0.00186 ± 0.0047 |  | 0.000382 ± 0.015 |  | 
UCCUGGAACUCGUUGCAUAGUAUUUAGAAA | 0.00198 ± 0.0027 | 0.00157 ± 0.0041 | 0.00502 ± 0.004 |  |  | 
UCCUCCUACAGCUUCCAUAGUAUUUAGUAA | 0.000874 ± 0.0058 | 0.00145 ± 0.0034 | 0.0037 ± 0.0018 |  |  | 
UCCUGGAUGUCGAACGUAUCUAUUUACAUA |  |  |  | < 0.0001 | 0.000186 ± 0.019 | 0.000138 ± 0.024
UCCUGGAUGAGCUUCCAUAGAAUUUAGUUA | 0.000276 ± 0.019 | 0.000222 ± 0.011 | 0.000307 ± 0.016 |  |  | 
UCCUGCUACAGCUUGCUAUCAUAAAUCAAA [g15:g25:cont:t1A] | 0.00014 ± 0.025 | 0.000686 ± 0.012 |  | 0.000185 ± 0.024 |  | 
UCCUGGAACAGCUUGCAUUCAAUUUAGAAA | 0.000405 ± 0.014 | 0.000482 ± 0.0097 | 0.00037 ± 0.0084 |  |  | 
UCCUGGAACAGCUUCCAUAGUAUUUAGAAA | 0.000462 ± 0.014 | 0.000867 ± 0.0082 | 0.00411 ± 0.0022 |  |  | 
UCCUGGAUGUCGAACCAAAGUAUUAAGUUA | 0.000184 ± 0.033 | 0.000543 ± 0.012 | 0.000103 ± 0.03 |  |  | 
UCCUGGAUGUCCUUGCAUAGUAUUUCAGUUA | 0.00248 ± 0.0036 | 0.00232 ± 0.0034 | 0.000606 ± 0.0075 |  |  | 
UCCUGGAUGUGCUUGCUAUGUAUUUAGAAA | 0.00112 ± 0.0051 | 0.000881 ± 0.008 | 0.000267 ± 0.014 |  |  | 
UCCUGCUACAGCUUCCAUAGUAUUUAGAUA | 0.000604 ± 0.0086 | 0.001 ± 0.0074 |  | 0.000235 ± 0.022 |  | 
UCCUGGAUGUCCUUCCAUUGUAUUUAGUUA | 0.000342 ± 0.013 | 0.000517 ± 0.011 | 0.000251 ± 0.012 |  |  | 
UCCUGCUACACGAUGCAUAGUAUUUAGAAA | 0.00113 ± 0.0057 | 0.00126 ± 0.0069 | 0.00244 ± 0.0025 |  |  | 

Some of the entries so far, in CSV form:
Sequence,"pre-steady-state target cleavage rate [1, 4]","pre-steady-state target cleavage rate [2, 4]","pre-steady-state target cleavage rate [3, 5]","pre-steady-state target cleavage rate [3, 6]","pre-steady-state target cleavage rate [1, 7]","pre-steady-state target cleavage rate [2, 7]"
UCCUGGAUGUCGAACCAUUGUAUUUAGAUA,0.000206 ± 0.016,0.000405 ± 0.011,0.000214 ± 0.014,,,
UCCUGCUACAGCUUGCAUAGUAUUUUCAAA,0.0014 ± 0.0048,0.00186 ± 0.0047,,0.000382 ± 0.015,,

Source: the supplement of paper PMC10338343
